In all, about 360,000 compounds went through this assay and about 7,500 (2.1%) were called active. Inconclusive means that the source gave no clear call. Such entries were picked first, then a sample of the others. Calls come from the whole dose curve; as a rule, active = well fitted inhibition curve with a large enough effect; inconclusive = small, poorly fitted or top-dose-only effect, or effect the other way; inactive = flat fitted curve, though single readings scatter. Potencies of inconclusive entries are doubtful fits and often do not repeat.
Assay: Nrf2 qHTS screen for inhibitors; note: nearly all actives have a fitted effect of over 60% in size
Conditions: A549 ARE-Fluc reporter, luciferase luminescence, 18-24 h; series mostly up to 46 µM
How it was run: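 Two sequential reads on A549 ARE_Fluc cells exposed to compound for 18-24 h: a CellTiter-Fluor fluorescence read for viability, then a luciferase luminescence read for Nrf2/ARE activity.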
Potency is the fitted concentration of half-maximal effect.

SMILES	Potency
Nc1[nH]c(=O)nc2c1ncn2C1OC(CO)C(O)C1O (stereo not drawn)	inactive
Cc1nn(-c2ccccc2)c(C)c1C(=O)Nc1ccc(N2CCOCC2)cc1	inconclusive: 20.6 µM [falling, partial curve]
Cc1cc(C)c2nc(N3CCC(C(=O)NCCCN4CC(C)CC(C)C4)CC3)sc2c1 (stereo not drawn)	inconclusive: 5.8 µM [activator, partial curve]
O=C(NCC(c1ccccc1)c1ccccc1)c1nn(-c2ccccc2Cl)nc1CO	inconclusive: 29.1 µM [falling, single point]
COc1ccc(-c2c(C#Cc3ccsc3)c3cc(Br)ccc3n2C)cc1	inactive
Cc1ccc(-c2csc(NC(=O)C3CCN(S(=O)(=O)c4cccs4)CC3)n2)cc1	inconclusive: 13 µM [falling, partial curve, poor fit]
Cc1ccccc1NC(=O)Cc1c[nH]c2ccccc12	inactive
Cc1nc2c(C(=O)N(C)Cc3ccccc3)c[nH]n2c(=O)c1Cc1ccc(Cl)cc1	inconclusive: 32.6 µM [falling, single point]
CCCC(O)(c1ccc(Cl)cc1)C(CN1CCOCC1)c1ccc(Cl)cc1 (stereo not drawn)	active: 18.4 µM
CC(NC(=O)Cc1ccc(-c2ccccc2)cc1)c1ccccc1 (stereo not drawn)	inconclusive: 13 µM [falling, partial curve, poor fit]
Cc1ccc(OCC(=O)NCCCNC(=O)c2ccco2)cc1	inconclusive: 20.6 µM [falling, single point]
CN(C)CCNc1ccc(-c2n[nH]c(=O)c3ccccc23)cc1[N+](=O)[O-]	inconclusive: 11.6 µM [falling, partial curve, poor fit]
Cc1ccc(S(=O)(=O)Nc2ccc3cc([N+](=O)[O-])ccc3c2[N+](=O)[O-])cc1	inconclusive: 29.1 µM [falling, single point]
O=C(Cc1cccc2ccccc12)N/N=C/c1ccc(OC(=O)/C=C/c2ccco2)cc1	inconclusive: 0.517 µM [falling, partial curve, poor fit]
Cn1c(C(=O)NC2CCCCC2)cc2sccc21	inconclusive: 9.2 µM [activator, partial curve, poor fit]
Cc1c(C(=O)O)oc2c3c(ccc12)OCCO3	inactive
Oc1cccc(Nc2c3ccccc3nc3ccccc23)c1	active: 23.1 µM
COc1ccc(CCn2c(N)c(C(=O)NCc3ccco3)c3nc4ccccc4nc32)cc1	inconclusive: 32.6 µM [falling, single point]
Cc1cc2nc3c(=O)[nH]c(=S)[nH]c3nc2cc1NC(=O)C(F)(F)F	inconclusive: 20.6 µM [activator, single point]
Cc1ccc(-n2nnc3c(SCC(=O)NCc4ccco4)ncnc32)cc1	inconclusive: 32.6 µM [falling, single point]
Nc1nonc1-c1nc2ccccc2n1Cc1ccc(F)cc1	inconclusive: 18.4 µM [activator, single point]
Cn1nnnc1Sc1ncnc2scc(-c3ccc[nH]3)c12	inconclusive: 25.9 µM [falling, single point]

SMILES	Potency
Cc1ccc(CNC(=O)CN(c2ccc(Cl)cc2Cl)S(=O)(=O)c2ccccc2)cc1	inconclusive: 29.1 µM [falling, single point]
Cc1cccc(OCc2nc(-c3nonc3N)no2)c1C	inconclusive: 6.51 µM [activator, single point]
Nc1ccc2c(c1)sc1ccccc12	inconclusive: 7.31 µM [activator, partial curve]
COc1ccc(-c2csc(NC(=O)C3CCCO3)n2)cc1 (stereo not drawn)	inconclusive: 2.59 µM [activator, partial curve]
COc1cccc(C(=O)Nc2c(C(=O)NC(C)(C)C)oc3ccccc23)c1	inconclusive: 2.59 µM [falling, full curve]
Cc1c(C(=O)Nc2cccnc2)oc2ccc(Br)cc12	inconclusive: 16.4 µM [activator, partial curve]
O=C(N/N=C(\Cc1ncc[nH]1)c1ccccc1)c1ccncc1	inactive
O=C(O)c1ccc(NC(=O)c2cn(-c3ccccc3)nc2-c2ccc(F)cc2)cc1	inconclusive: 18.4 µM [activator, partial curve]
CC(C)CN1C(=O)c2ccc(NC(=O)c3ccco3)cc2C1=O	inconclusive: 16.4 µM [activator, partial curve]
Nc1ccc(Cc2ccc(N)c(O)c2)cc1O	inactive
O=C(Cn1cnc(S(=O)(=O)N2CCCC2)c1)Nc1ccc(OC(F)(F)F)cc1	inconclusive: 25.9 µM [activator, single point]
CCc1ccc(NC(=O)c2cc3sc(Cl)cc3n2C)cc1	inconclusive: 2.91 µM [activator, partial curve]
Cc1ccccc1Nc1nnc(-c2ccc(C)c(S(=O)(=O)N3CCOCC3)c2)c2ccccc12	inconclusive: 29.1 µM [falling, single point]
Cn1c(/C=C/c2ccc(Cl)cc2)c([N+](=O)[O-])c(=O)n(C)c1=O	inconclusive: 20.6 µM [falling, partial curve, poor fit]
O=C(O)c1ccc(N/N=C/c2ccc(F)c(F)c2)cc1	inconclusive: 23.1 µM [activator, partial curve]
CC(=O)Nc1cccc(OCC(O)Cn2c(C)nc3ccccc32)c1 (stereo not drawn)	inconclusive: 29.1 µM [falling, single point]
CC12CC(c3ccccc3O1)N(C(=O)c1ccco1)C(=S)N2c1ccccc1 (stereo not drawn)	active: 8.2 µM
COc1ccc(CN2COc3ccc4c(-c5ccccc5)cc(=O)oc4c3C2)cc1	inconclusive: 29.1 µM [activator, single point]
FC(F)(F)c1cc(-c2cccs2)nc(-n2cc(Cl)cn2)n1	inactive
COc1ccc(NC(=O)N2CCN(c3nc4ccccc4n3C(C)C)CC2)cc1	inconclusive: 29.1 µM [falling, single point]
Cc1ccc(C(=O)NCCNC(=O)c2cccnc2)cc1	inconclusive: 1.64 µM [falling, partial curve, poor fit]

In the list so far, 2 have two or more sulfur atoms:
SMILES	Potency
Cc1ccc(-c2csc(NC(=O)C3CCN(S(=O)(=O)c4cccs4)CC3)n2)cc1	inconclusive: 13 µM [falling, partial curve, poor fit]
Cn1nnnc1Sc1ncnc2scc(-c3ccc[nH]3)c12	inconclusive: 25.9 µM [falling, single point]
